According to patent publication US11806393B2, “Flavivirus peptide sequences, epitopes, and methods and uses thereof” (priority 2017, dated 2023):
At least one peptide structure holds a part that was inferred or is arguable (an end, a ring closure or a residue). Ends that are not written are not given here.

Columns and labels:
[1] = system: CD8+ T cells; assay: Intracellular cytokine staining (ICS), WT C57BL/6 mice treated with IFNAR-blocking antibody; assay type: cell-based, mouse; details: splenocytes day 7 after MR766 or FSS13025; four peptides shared by both strains, NS31866-1874 MR766 only
Experimental: (§1) For intracellular cytokine staining (ICS), splenocytes were counted after red blood cell lysis and resuspended in 10% FBS/RPMI medium at 40×10^6 cells per ml. Splenocytes (2×10^6) were plated and stimulated with 1 μg of individual peptide as previously detailed (Elong Ngono et al., 2016). Positive (PMA-Ionomycin) and negative (No stimulation) controls were added for all experiments. Cells were labeled with anti-CD3 (Clone 145-2C11), anti-CD8 (clone 53-67), anti-CD44 (clone IM7), and anti-CD62L (clone Mel-14). Cells then were fixed and permeabilized, followed by staining with anti-granzyme B (clone NGZB), anti-IFNγ (clone XMG 1.2) and anti-TNFα(clone MP6-XT22). Samples were read on an LSR II (BD Biosciences) and were analyzed using FLOWJO™ software X 10.0.7 (Tree Star, Ashland, Oreg.).
The following results are with respect to FIG. 7A to FIG. 7E, where WT C57BL/6 mice treated with type I IFN receptor-blocking antibody on day 1 prior to infection were inoculated with 10^4 FFU of ZIKV strain MR766 (n=3) or FSS (n=3), or injected with 10% FBS/PBS (MOCK, n=2). […] The data are expressed as the mean of spot forming cells (SFC) per 10^6 CD8^+ T cells. […] Splenocytes were harvested on day 7 post-infection, followed by stimulation with 1 μg of IFNγ-ELISPOT-positive ZIKV-derived peptides in presence of Brefeldin A (BFA) and CD107a for 4 hours, and the production of IFNγ and TNFα was assessed via ICS. […]

[2] = system: CD8+ T cells; assay: ICS, LysMCre+IFNARfl/fl mice; assay type: cell-based, mouse; details: LysMCre+IFNARfl/fl mice infected with MR766 or FSS13025
Experimental: as §1
The following results are with reference to FIG. 3A and FIG. 3B, where five-week-old LysMCre^+IFNAR^fl/fl were infected retro-orbitally with 10^4 FFU of ZIKV MR766 or FSS13025. […] A total of 244 peptides from ZIKV strains predicted to bind H-2Kb and H-2db with high affinity were screened. Two independent experiments for each ZIKV strain (n=5 mice for each experiment) were performed in triplicate per peptide. The data are expressed as the mean of spot forming cells (SFC) per 10^6 CD8^+ T cells, and error bars are represented as SEM. […]

[3] = system: CD8+ T cells; details: H-2b restricted; cited from earlier work
[4] = system: splenocytes pulsed with ZIKV-derived peptides (target cells); assay type: in vivo, mouse; details: WT mice with IFNAR blockade infected with MR766 or FSS13025; targets loaded with pool of the three peptides; 4 h
Experimental: LysMCre^+IFNAR^fl/fl and WT mice were infected with 10^4 FFU of MR766 or FSS13025. Seven days post-infection, splenocytes were harvested from naïve donor mice, followed by stimulation with a pool of H-2b-restricted ZIKV-peptides (PrM169-177(SEQ ID NO: 19), E297-305 (SEQ ID NO: 25), N552783-2792 (SEQ ID NO: 20)) referred to as “Target Cells” or with DMSO for 3 h at 37° C. The cells were washed and labeled with CSFE (Invitrogen) in PBS/0.1% BSA for 10 min at 37° C. Target cells were labeled with 1 μM CSFE (High) or 100 nM CSFE (Low) for unstimulated cells. After washing, 10^7 of labeled cells (5×10^6 of each population) were injected intravenously into MOCK and infected recipients. Splenocytes from recipients were harvested 4 (Wild type) or 12 h later (LysMCre^+IFNAR^fl/fl) and analyzed by flow cytometry. The percentage of killing is calculated as followed: 100−(% ZIKV-peptide stimulated in infected mice/% DMSO-stimulated in infected mice)/(% ZIKV-peptide stimulated in naïve mice/% DMSO-stimulated in naïve mice)×100).
The following results are with respect to FIG. 7A to FIG. 7E, where WT C57BL/6 mice treated with type I IFN receptor-blocking antibody on day 1 prior to infection were inoculated with 10^4 FFU of ZIKV strain MR766 (n=3) or FSS (n=3), or injected with 10% FBS/PBS (MOCK, n=2). […] Four independent experiments for MR766 (n=8 mice per experiment) and two independent experiments for FSS13025 (n=8 mice per experiment) were performed in triplicate for each peptide. The data are expressed as the mean of spot forming cells (SFC) per 10^6 CD8^+ T cells. One-way ANOVA was used to compare the mean of each peptide with the control (DMSO). […] Pooled data from two independent experiments are shown. The dotted line corresponds to the average value obtained by MOCK after stimulation (0.43% of IFNγ^+CD8^+ T cells). Splenocytes were harvested on day 7 post-infection, followed by stimulation with 1 μg of IFNγ-ELISPOT-positive ZIKV-derived peptides in presence of Brefeldin A (BFA) and CD107a for 4 hours, and the production of IFNγ and TNFα was assessed via ICS. […]

| Sequence | frequency of IFNγ-producing CD8+ T cells (ICS) [1] | immunodominance of epitopes (IFNγ+TNFα+ and CD107a+IFNγ+ ICS) [2] | cross-reactivity with CD8+ T cells induced in DENV2-infected mice [3] | killing of peptide-loaded splenocytes [4] |
| --- | --- | --- | --- | --- |
| SNRDFVEGM [SEQ ID NO 25] | induced a high frequency of IFNγ-expressing cells | immunodominant epitopes | cross-reactive | approximately 70% |
| CAEAPNMKVI [SEQ ID NO 20] | – | – | – | approximately 70% |
| ATMSYECPM [SEQ ID NO 19] | induced a high frequency of IFNγ-expressing cells | immunodominant epitopes | cross-reactive | approximately 70% |
